# Experimental data published in PubChem BioAssay AID1347076 (National Center for Advancing Translational Sciences (NCATS), 2019).
# Several values for one entry are separate records, joined by “and”; a condition that tells them apart may be missing. Equal entries are not always repeated. Out of some 400,000 compounds screened, about 13,000 (3.2%) were called active. Inconclusive means that the source gave no clear call. Such entries were picked first, then a sample of the others. Calls follow the shape of the dose curve; as a rule, active = well fitted cell-killing curve with a large enough effect; inconclusive = small, poorly fitted or top-dose-only effect, or effect the other way; inactive = flat fitted curve, though single readings scatter. Potencies of inconclusive entries are doubtful fits and often do not repeat.
# Test: qHTS assay for MDR1-selective chemotherapeutics: Primary screen using the drug-selected MDR subline cells KB-V1; also: nearly all actives have a fitted effect of over 60% in size
# Conditions: KB-V1 MDR cells viability, CellTiter-Glo, 72 h; activity change, negative = cytotoxicity: at 46.1 µM (top of the series)
# Outline: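 Luminescent ATP read-out (CellTiter-Glo, 10 min) measures survival of drug-selected KB-V1 MDR cells after 72 h, 37 degrees C compound exposure. Medium: phenol-red-free DMEM, 10% FBS. Values from fitted concentration-response curves.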
# % is scaled to controls: 0 for no effect and ±100 for the full control effect; potency is read from the fitted curve at half-maximal effect.
SMILES,Potency,"activity change, negative = cytotoxicity"
Cc1c(C(=O)Nc2cccc(Cl)c2)oc2ccc(S(=O)(=O)N3CCC4(CC3)OCCO4)cc12,active: 4.11 µM,
Cc1cc(C)cc(OCCNC(=O)c2cc(S(=O)(=O)N3CCOCC3)ccc2F)c1,"inconclusive: 20.6 µM [cytotoxic, partial curve]",
Cc1cnc2ccccc2c1/C=C/c1ccc(N)cc1,"inconclusive: 29.1 µM [cytotoxic, single point]",
O=C(NCc1ccccc1)C(c1ccc(C(F)(F)F)cc1)n1c(=O)c(-c2ccco2)nc2ccccc21 (centres undefined),"inconclusive: 9.2 µM [cytotoxic, partial curve, poor fit]",
O=C(NCc1ccccc1)N1CCCC1,inactive,
COc1cc(-c2noc(C)c2-c2ccc3[nH]ccc3c2)cc(OC)c1OC,"active: 1.84 µM and inconclusive: 8.2 µM [cytotoxic, partial curve, poor fit]",
CSCCC(C(=O)Nc1c(C)cccc1C)N(Cc1ccccc1)Cc1ccccc1 (centres undefined),"inconclusive: 16.4 µM [cytotoxic, single point]",
Cc1cccc(NC(=O)NCCN2CCN(c3ccccc3)CC2)c1C,inactive,
CCOc1c(Br)cc(CNC2CCCCCCC2)cc1OC,"inconclusive: 29.1 µM [cytotoxic, single point]",
COc1ccc(NS(=O)(=O)c2ccc3c(c2)NC(=O)CCS3)cc1Cl,inactive,
CCN(c1ccccc1)S(=O)(=O)c1ccc(N)c(OC)c1,active: 23.1 µM,
Cc1ccc(NC(=O)COC(=O)c2ccc3c(c2)NC(=O)C2CCCN32)cc1 (centres undefined),"inconclusive: 20.6 µM [cytotoxic, single point]",
C[C@@]12C(=O)Nc3ccccc3C(=O)N1[C@H]1c3cc(Cl)ccc3OC[C@@H]1[C@@H]2c1ccccc1,"inconclusive: 29.1 µM [cytotoxic, single point]",
COc1ccc2[nH]c3c(N4CC(C)OC(C)C4)ncnc3c2c1 (centres undefined),inactive,
CCOC(=O)C1CCN(C(=O)c2[nH]c(C(F)(F)F)nc2-c2ccccc2)CC1,inactive,
CCN(CC)S(=O)(=O)c1cc(NC(=O)C(C)N2CCc3ccccc32)ccc1C (centres undefined),"inconclusive: 29.1 µM [cytotoxic, single point]",
O=C(NCCOc1ccc(F)cc1)C1CCC(=O)N(CCCN2CCOCC2)C1 (centres undefined),"inconclusive: 5.17 µM [cytotoxic, full curve]",
O=C(CSc1ccc(-c2ccco2)nn1)Nc1ccccc1F,inactive,
NCCCC(=O)N1c2ccccc2Sc2ccc(Cl)cc21,inactive,
COc1cc(-c2noc(CCCC(=O)Nc3cccnc3)n2)cc(OC)c1OC,,inconclusive: 0.48%
O=C(c1ccc(Cl)cc1)N1CCCC(C(=O)N2CCc3ccccc3C2)C1 (centres undefined),"inconclusive: 16.4 µM [cytotoxic, partial curve, poor fit]",
O=S(=O)(c1ccc(F)cc1)N1CCN(c2nc(-c3cccnc3)nc3ccccc23)CC1,"inconclusive: 16.4 µM [cytotoxic, partial curve]",
CC(=O)n1cc(C2CC(=O)OC3=C2CC(=O)C(C)(C)C3)c2ccccc21 (centres undefined),inactive,
COc1cc2c(cc1OC)C(C(=O)NCc1ccco1)C(c1cccs1)N(C)C2=O (centres undefined),"inconclusive: 18.4 µM [cytotoxic, single point]",
CC(=O)Nc1ccc(NS(=O)(=O)C(F)(F)F)cc1,inactive,

# Given bar-delimited: 2 of the compounds above
SMILES | Potency | activity change, negative = cytotoxicity
Cc1cc(C)cc(OCCNC(=O)c2cc(S(=O)(=O)N3CCOCC3)ccc2F)c1 | inconclusive: 20.6 µM [cytotoxic, partial curve] | 
NCCCC(=O)N1c2ccccc2Sc2ccc(Cl)cc21 | inactive | 

# Following part.

SMILES,Potency,"activity change, negative = cytotoxicity"
O=C1NC(=O)C(=Cc2ccco2)S1,"inconclusive: 16.4 µM [rising, partial curve, poor fit]",
Cc1ccccc1CN(c1ccc(C(=O)NCCC2=CCCCC2)cc1)S(C)(=O)=O,active: 13 µM,
O=C(Nc1nc(-c2ccccc2)cs1)Nc1ccc(F)cc1F,"inconclusive: 18.4 µM [cytotoxic, single point]",
Oc1c(C(c2ccco2)N2CCOCC2)sc2ncnn12 (centres undefined),"inconclusive: 4.61 µM [rising, partial curve, poor fit]",
Cc1cc2nc(-c3ccccc3)c(Cc3ccsc3)n2c(C)c1Br,inactive,
O=[N+]([O-])c1cc(CN2CCN(c3ccccc3)CC2)c(O)c2ncccc12,"inconclusive: 5.8 µM [cytotoxic, full curve, poor fit]",
CCOC(=O)N1CCN(C(=O)CSCc2nc(-c3ccccc3C)oc2C)CC1,active: 18.4 µM,
Cc1cc(C)c(S(=O)(=O)N2CCCC(C(=O)NCCC3=CCCCC3)C2)c(C)c1 (centres undefined),"inconclusive: 9.2 µM [cytotoxic, partial curve, poor fit]",
c1ccc2c(C(c3nnnn3-c3ccc4c(c3)OCCO4)N3CCCC3)ccnc2c1 (centres undefined),inactive,
Cc1cc(N2CCN(S(=O)(=O)c3ccc(Cl)c(Cl)c3)CC2)c2ccccc2n1,"inconclusive: 23.1 µM [cytotoxic, single point]",
O=C(NCC1CCCO1)c1ccccc1OCc1ccc(F)cc1 (centres undefined),"inconclusive: 14.6 µM [cytotoxic, single point]",
CC(=O)Nc1ccc(OC(F)(F)Cl)cc1,"inconclusive: 29.1 µM [rising, single point]",
CC(C)[C@H](NC(=O)c1cccc(S(=O)(=O)N2CCOCC2)c1)C(=O)OCC(=O)Nc1cccc(Br)c1,inactive,
CCCCNc1nc2c(-c3ccccc3)nnn2c2ccccc12,inactive,
COCCCNC(=O)Nc1ccc(Br)cc1Cl,"inconclusive: 16.4 µM [cytotoxic, single point]",
COC(=O)c1ccccc1-n1cc2c(c1-c1cccc(C)c1)c(=O)n(C)c(=O)n2C,inactive,
COc1ccc(CNc2ncc(-c3ccc(F)cc3)n2C)cc1OC,"inconclusive: 6.51 µM [cytotoxic, partial curve]",
COc1ccccc1CNC(=O)c1oc2ccc(S(=O)(=O)N3CCCC3)cc2c1C,inactive,
Cc1ccc(C(=O)NCCc2nc3ccccc3[nH]2)cc1[N+](=O)[O-],inactive,
CC(C)Oc1ccc(C(=O)NC(=S)N2CCOCC2)cc1,inactive,
O=C(Oc1ccc(=O)n(-c2ccccc2)n1)c1ccc(Cl)cc1,inactive,
S=c1nc[nH]c2c1sc1nc(N3CCOCC3)c3c(c12)CCCC3,"inconclusive: 16.4 µM [cytotoxic, single point]",
O=C(CSc1nc2c(c(=O)[nH]1)CN(Cc1ccc3c(c1)OCO3)CC2)Nc1ccc(F)c(F)c1,inactive,
Cc1nn(C)c(Cl)c1C(=O)NCC(=O)Nc1ccc(C(C)C)cc1,"inconclusive: 18.4 µM [cytotoxic, single point]",
O=C(NC1CCCCC1)C(c1ccc(O)cc1)N(C(=O)c1cnccn1)c1cccc(F)c1 (centres undefined),inactive,

SMILES,Potency,"activity change, negative = cytotoxicity"
CCOc1ccccc1C(=O)N/N=C/c1cccc2cccnc12,"inconclusive: 32.6 µM [cytotoxic, single point]",
COc1ccc(-c2cc(=O)c3cc(O)ccc3o2)cc1,"inconclusive: 29.1 µM [cytotoxic, single point]",
Cc1ccc(S(=O)(=O)N(C)Cc2nc(-c3ccccn3)no2)cc1,inactive,
Cn1c(SCC(=O)NC2CCS(=O)(=O)C2)nc2ccccc21 (centres undefined),inactive,
CCOc1ccc(NS(=O)(=O)c2ccc(OC)c(NC(=O)c3ccc4c(c3)OCCO4)c2)cc1,"inconclusive: 4.61 µM [cytotoxic, full curve]",
O=C(CC(c1ccc(F)cc1)c1ccco1)Nc1nccs1 (centres undefined),"inconclusive: 11.6 µM [cytotoxic, partial curve]",
NS(=O)(=O)c1ccc(CCNC(=O)CSc2nc3ccccc3c(=O)n2CCN2CCOCC2)cc1,inactive,
C=CCNc1nc(N)c(C(=C(C#N)C#N)c2ccc(Br)cc2)s1,active: 18.4 µM,
CC(=O)c1ccc(S(=O)(=O)Oc2ccc(-c3ccc(C(=O)O)cc3)cc2)cc1,"inconclusive: 1.03 µM [rising, full curve]",
CCCCn1c(NC(=O)C2CCCCC2)nc2ccccc21,,inconclusive: -21%
COc1ccccc1NC(=O)c1ccc(S(=O)(=O)N(C)c2ccccc2)cc1,inactive,
O=C(NCCc1ccccc1)c1ccc(NCC2CCCO2)c([N+](=O)[O-])c1 (centres undefined),"inconclusive: 11.6 µM [cytotoxic, partial curve]",
COc1cccc(C2=NOC(C(=O)NCc3cccs3)C2)c1 (centres undefined),"inconclusive: 16.4 µM [cytotoxic, single point]",
CCN1C[C@@H]2[C@@H]3C(=O)N(Cc4ccccc4)C(=O)[C@@H]3[C@](C)(C1=O)N2C(=O)c1ccc(Cl)cc1,inactive,
Cc1ccc(NC(=O)CSc2nc(C)c(C)c(C)n2)c([N+](=O)[O-])c1,,inconclusive: -44.4%
CC1CCCN(C(=O)Cn2nnc(-c3ccc(F)cc3)n2)C1 (centres undefined),,inconclusive: -31.9%
Cc1cc(-c2nc3ccccc3o2)c2ccccc2n1,active: 13 µM,
Cc1[nH]c2ccccc2c1C(=O)NS(=O)(=O)Nc1ccccc1,inactive,
CCOC(=O)C1CCN(C(=O)c2cc3c(=O)n4cccc(C)c4nc3s2)CC1,"inconclusive: 11.6 µM [cytotoxic, partial curve, poor fit]",
CN1C(=O)C2(OCC(CO)([N+](=O)[O-])CO2)c2ccccc21 (centres undefined),"inconclusive: 29.1 µM [cytotoxic, single point]",
CC(=O)c1ccc(S(=O)(=O)NC2CCSc3ccccc32)cc1 (centres undefined),"inconclusive: 10.3 µM [cytotoxic, partial curve]",
COc1cnc(-c2ccccn2)nc1Oc1cccc(Cl)c1,active: 6.51 µM,
CCOC(=O)C1=C(N)n2c(s/c(=C/c3ccco3)c2=O)=C(C(=O)OC)C1c1ccco1 (centres undefined),"inconclusive: 4.11 µM [cytotoxic, full curve]",
COc1ccc2[nH]c3nc(SC(C)C)nnc3c2c1,"inconclusive: 2.91 µM [cytotoxic, full curve, poor fit]",

# Sorted by SMILES length (smallest number first): some entries from above
SMILES,Potency,"activity change, negative = cytotoxicity"
CC(=O)c1ccc(S(=O)(=O)Oc2ccc(-c3ccc(C(=O)O)cc3)cc2)cc1,"inconclusive: 1.03 µM [rising, full curve]",
CCOc1ccc(NS(=O)(=O)c2ccc(OC)c(NC(=O)c3ccc4c(c3)OCCO4)c2)cc1,"inconclusive: 4.61 µM [cytotoxic, full curve]",
CC(C)[C@H](NC(=O)c1cccc(S(=O)(=O)N2CCOCC2)c1)C(=O)OCC(=O)Nc1cccc(Br)c1,inactive,
